For some assays here: A negative result means that nothing was seen under these conditions. For some assays here: The exact form of at least one protein or probe is not confirmed.

The chains behind the UniProt entries cited, without tags or fusion partners. Where a name states a change or a piece, a line headed by the entry shows the natural chain unless it says otherwise. Residues count along the entry.
UniProt P04271, 2-92: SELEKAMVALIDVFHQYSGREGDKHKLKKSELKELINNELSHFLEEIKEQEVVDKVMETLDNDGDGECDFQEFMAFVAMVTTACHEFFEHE
UniProt P10636: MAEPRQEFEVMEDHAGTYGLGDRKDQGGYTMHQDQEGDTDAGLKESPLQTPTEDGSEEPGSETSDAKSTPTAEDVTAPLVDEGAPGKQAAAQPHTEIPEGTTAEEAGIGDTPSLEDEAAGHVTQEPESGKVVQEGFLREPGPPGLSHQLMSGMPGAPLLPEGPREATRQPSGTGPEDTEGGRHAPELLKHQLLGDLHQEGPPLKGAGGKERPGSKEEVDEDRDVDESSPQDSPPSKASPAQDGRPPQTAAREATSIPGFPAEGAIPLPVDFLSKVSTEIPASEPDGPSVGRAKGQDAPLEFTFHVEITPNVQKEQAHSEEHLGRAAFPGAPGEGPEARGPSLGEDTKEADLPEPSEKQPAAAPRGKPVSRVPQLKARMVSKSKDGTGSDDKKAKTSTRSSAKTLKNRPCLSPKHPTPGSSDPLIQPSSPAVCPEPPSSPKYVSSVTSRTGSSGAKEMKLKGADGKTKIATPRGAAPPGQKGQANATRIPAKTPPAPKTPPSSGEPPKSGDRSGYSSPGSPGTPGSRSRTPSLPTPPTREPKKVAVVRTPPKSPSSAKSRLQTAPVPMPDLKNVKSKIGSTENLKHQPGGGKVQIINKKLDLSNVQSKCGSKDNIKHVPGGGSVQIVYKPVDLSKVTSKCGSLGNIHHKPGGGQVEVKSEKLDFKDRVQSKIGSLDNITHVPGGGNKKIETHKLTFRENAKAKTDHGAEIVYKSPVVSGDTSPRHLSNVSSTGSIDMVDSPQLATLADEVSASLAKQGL

Data set [1] has as its target S100B (UniProt P04271). The data set can be described thus: EMSA. The settings on record: 200 nM aptamer, 0.05 mg/mL protein, 4 C; label: 5'-FAM (flow); single-stranded DNA. (In EMSA bound probe runs differently from free probe, usually more slowly.)
In data set [2] the test system is IgG. The data set can be described thus: EMSA. The settings on record: 200 nM aptamer, 0.05 mg/mL protein, 4 C; label: 5'-FAM (flow); single-stranded DNA.
The target in data set [3] is Tau T231P phosphopeptide (UniProt P10636). In words: flow cytometry. The settings on record: specific to T231; 4 C, 250 nM; synthetic protein; label: 5'-FAM (flow); single-stranded DNA. (In flow cytometry, cells or beads pass a laser one at a time.)
The test system of data set [4] is Tau441 (microtubule-associated protein tau, 2N4R). The data set can be described thus: inhibition of the protein. The settings on record: 5-20 uM IT3 reduces heparin-induced oligomerization of 10 uM Tau441; random sequence inactive; purified recombinant protein; label: 5'-FAM (flow); single-stranded DNA.
Data set [5] deals with Tau S202P phosphopeptide. In words: flow cytometry. The settings on record: binds S202 but not S202P; synthetic protein; label: 5'-FAM (flow); single-stranded DNA.
In data set [6] the test system is Tau (endogenous, SH-SY5Y cells) (Homo sapiens). In words: activity in cells. The settings on record: 20 uM, reduces okadaic acid-induced tau oligomers in SH-SY5Y, protein in cells, single-stranded DNA.

For the sequence “CAGCACCGTCAACTGAATGGGTTGGCCGGGCAGCGGGGGGTAGGCTTGGTGATGCGATGGAGATGT [IT4]”, the binding result in data set [1], in data set [2] and in data set [3] was “no binding” throughout.

In the case of “CAGCACCGTCAACTGAATGGGGAGAGTGGTGGGGCGGGGGCCGGATCCGTGATGCGATGGAGATGT [IT3]”, the “functional effect of the aptamer” value in data set [4] is given as “active”. The binding result in data set [1] and in data set [2] was “no binding” each time.

As for “CAGCACCGTCAACTGAATGTTGTCGTCAGAGGTTATAACCTGAACTCGGTGATGCGATGGAGATGT [IT6]”, the binding result in data set [3] is listed as “no binding”.

Turning to “CAGCACCGTCAACTGAATTGCGGGGGGTCAGGTCGGGGTAAGGTGAGCGTGATGCGATGGAGATGT [IT9]”, the binding result in data set [1], in data set [2] and in data set [3] was “no binding” in each case.

Regarding “CAGCACCGTCAACTGAATGGCGGGGGGTCAGGTCGGGGTAAGGTGAGCGTGATGCGATGGAGATGT [IT5]”, the binding result in data set [1], in data set [2] and in data set [3] was “no binding” each time.

Regarding “CAGCACCGTCAACTGAATAAGGACTGCTTAGGATTGCGATGATTCAGGGTGATGCGATGGAGATGT [IT2]”, the binding result in data set [5] is recorded as “no binding”.

For the sequence “CAGCACCGTCAACTGAATTGCTTGGTCCTCCCGGGGTTCTGGAAAAGCGTGATGCGATGGAGATGT [IT1]”, the binding result in data set [3] was “no binding”.

Turning to GCTTGGTCCTCCCGGGGTTCTGGAAAAGC [IT1c], in data set [6] (variant of IT1), the “functional effect of the aptamer” value is listed as “active”.

As for “CTGAATAAGGACTGCTTAGGATTGCGATGATTCAG [IT2a]”, the “functional effect of the aptamer” value in data set [6] (variant of IT2) is listed as “active”.

The values above are taken from patent publication US20190101529.
